# Article PMC3324469, “Preparation and Characterization of the Extracellular Domain of Human Sid-1” (PLoS ONE, 2012)
# These are yes or no findings as the source states them, for the method shown. Some results given as binding are weak or reduced against the parent protein; the word gives no strength.
# Molecular target: extracellular domain of human SidT1 (SidT1 ECD), glycosylated, secreted from insect cells (human) (UniProt Q9NXL6)
# Assay: SEC; re-injection of the fractions containing the putative tetramer; data not shown; both purified
binder,measurement,value
"extracellular domain of human SidT1 (SidT1 ECD), glycosylated, secreted from insect cells (domain or fragment, N-linked glycosylation (sites not given), N-terminal glycine appendage left from the TEV protease site; human SidT1 (Sid-1 homolog), extracellular domain, residues 19-304 of Entrez Protein AAI17223, after signal peptidase and TEV cleavage; also called SidT1 extracellular domain; recombinant SidT1 ECD; source: Tni (usually) or Sf9 insect cells, baculovirus, secreted into the medium; not shown: His6, N-terminal, cleaved) GAASPGHPAKSPRQPPAPRRDPFDAARGADFDHVYSGVVNLSTENIYSFNYTSQPDQVTAVRVYVNSSSENLNYPVLVVVRQQKEVLSWQVPLLFQGLYQRSYNYQEVSRTLCPSEATNETGPLQQLIFVDVASMAPLGAQYKLLVTKLKHFQLRTNVAFHFTASPSQPQYFLYKFPKDVDSVIIKVVSEMAYPCSVVSVQNIMCPVYDLDHNVEFNGVYQSMTKKAAITLQKKDFPGEQFFVVFVIKPEDYACGGSFFIQEKENQTWNLQRKKNLEVTIVPSIKES",binding,binds
